Results taken from article PMC9177846, “Targeting parvalbumin promotes M2 macrophage polarization and energy expenditure in mice” (Nature Communications, 2022).
No constants are given. Whether binding was seen depends on the method and setting. For part of these data: In cells and extracts the contact can be indirect. Some entries that bind do so weakly or less than the wild type. For part of these data: Sequences can lack the tags named with a protein.

By UniProt entry, the sequences of proteins in these tests, tags left out.
UniProt P32848: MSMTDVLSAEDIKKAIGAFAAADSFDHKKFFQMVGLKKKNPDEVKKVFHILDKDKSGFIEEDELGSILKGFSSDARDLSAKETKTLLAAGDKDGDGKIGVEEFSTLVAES

T1: GFP-tagged CSF1R immunoprecipitated from HEK293T cells (UniProt P09581)
T1 sequence: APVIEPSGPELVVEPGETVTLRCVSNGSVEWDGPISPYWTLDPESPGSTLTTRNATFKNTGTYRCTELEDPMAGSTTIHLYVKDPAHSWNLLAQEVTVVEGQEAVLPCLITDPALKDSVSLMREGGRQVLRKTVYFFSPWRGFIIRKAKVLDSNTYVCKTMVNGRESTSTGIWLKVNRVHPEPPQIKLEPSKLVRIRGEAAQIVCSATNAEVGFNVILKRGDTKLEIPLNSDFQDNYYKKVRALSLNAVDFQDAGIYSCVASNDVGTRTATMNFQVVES


Tests used:
[1] = target: T1, GFP-tagged CSF1R immunoprecipitated from HEK293T cells; experiment: pull-down; as the pull-down of parvalbumin with immunoprecipitated CSF1R from HEK293T cells, with parvalbumin blocker (1 μg/ml) added; only the binder purified
[2] = target: T1, GFP-tagged CSF1R immunoprecipitated from HEK293T cells; experiment: pull-down; CSF1R immunoprecipitated from lysate of transfected cells on protein A/G agarose beads, washed with PBS, parvalbumin (1 ug/ml) added for 2 h, washed, immunoblot; only the binder purified
[3] = target: parvalbumin (recombinant protein) (UniProt P32848); experiment: pull-down; competition: parvalbumin blocker peptide (1 μg/ml) added with parvalbumin to immunoprecipitated CSF1R; blocker against parvalbumin; both purified

| Molecule | binding [1] | binding [2] | binding [3] |
| --- | --- | --- | --- |
| parvalbumin (recombinant protein) (from UniProt P32848 1-110) | binds | binds |  |
| MREGGRQVLRKTVY [parvalbumin blocker (M141-Y154 region of CSF1R)] |  |  | binds |
